# According to paper doi:10.1101/2021.06.28.449463:
# Protein sequences, listed by entry. Tags and fused reporters are not part of them. Lines headed by an entry give the natural chain unless they say otherwise; changes in a name come on top.
# UniProt Q5DW34: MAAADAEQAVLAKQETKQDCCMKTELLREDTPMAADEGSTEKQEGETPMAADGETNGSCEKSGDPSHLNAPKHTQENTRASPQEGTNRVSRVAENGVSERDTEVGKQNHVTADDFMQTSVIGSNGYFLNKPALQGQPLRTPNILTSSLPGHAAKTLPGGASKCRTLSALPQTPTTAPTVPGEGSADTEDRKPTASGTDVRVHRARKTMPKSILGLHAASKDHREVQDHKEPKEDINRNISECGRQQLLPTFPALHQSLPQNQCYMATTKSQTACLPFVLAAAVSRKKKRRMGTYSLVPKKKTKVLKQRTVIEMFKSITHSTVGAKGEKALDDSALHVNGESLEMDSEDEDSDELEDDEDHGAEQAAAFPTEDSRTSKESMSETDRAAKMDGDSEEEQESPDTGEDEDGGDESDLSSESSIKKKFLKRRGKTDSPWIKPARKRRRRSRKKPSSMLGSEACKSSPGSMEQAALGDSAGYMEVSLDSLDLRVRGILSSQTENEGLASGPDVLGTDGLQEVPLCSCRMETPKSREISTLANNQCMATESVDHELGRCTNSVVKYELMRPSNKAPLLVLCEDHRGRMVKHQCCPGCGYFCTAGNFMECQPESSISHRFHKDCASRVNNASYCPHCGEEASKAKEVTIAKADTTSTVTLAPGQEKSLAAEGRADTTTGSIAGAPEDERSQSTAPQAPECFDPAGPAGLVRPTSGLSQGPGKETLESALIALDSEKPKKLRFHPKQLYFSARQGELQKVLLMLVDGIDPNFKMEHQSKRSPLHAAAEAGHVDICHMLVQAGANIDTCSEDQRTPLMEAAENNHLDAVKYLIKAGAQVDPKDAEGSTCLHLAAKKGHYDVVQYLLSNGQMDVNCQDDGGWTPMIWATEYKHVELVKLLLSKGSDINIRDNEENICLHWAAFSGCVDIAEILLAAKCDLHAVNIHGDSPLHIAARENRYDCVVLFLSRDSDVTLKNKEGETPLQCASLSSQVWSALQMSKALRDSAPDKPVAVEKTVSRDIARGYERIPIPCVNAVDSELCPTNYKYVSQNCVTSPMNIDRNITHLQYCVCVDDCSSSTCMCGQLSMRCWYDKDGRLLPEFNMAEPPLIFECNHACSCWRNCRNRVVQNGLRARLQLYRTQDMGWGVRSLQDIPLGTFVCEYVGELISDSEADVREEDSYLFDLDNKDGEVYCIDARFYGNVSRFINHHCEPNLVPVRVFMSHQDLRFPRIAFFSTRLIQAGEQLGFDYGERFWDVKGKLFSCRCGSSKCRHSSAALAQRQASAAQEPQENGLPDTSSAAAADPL
# UniProt B1AWL2: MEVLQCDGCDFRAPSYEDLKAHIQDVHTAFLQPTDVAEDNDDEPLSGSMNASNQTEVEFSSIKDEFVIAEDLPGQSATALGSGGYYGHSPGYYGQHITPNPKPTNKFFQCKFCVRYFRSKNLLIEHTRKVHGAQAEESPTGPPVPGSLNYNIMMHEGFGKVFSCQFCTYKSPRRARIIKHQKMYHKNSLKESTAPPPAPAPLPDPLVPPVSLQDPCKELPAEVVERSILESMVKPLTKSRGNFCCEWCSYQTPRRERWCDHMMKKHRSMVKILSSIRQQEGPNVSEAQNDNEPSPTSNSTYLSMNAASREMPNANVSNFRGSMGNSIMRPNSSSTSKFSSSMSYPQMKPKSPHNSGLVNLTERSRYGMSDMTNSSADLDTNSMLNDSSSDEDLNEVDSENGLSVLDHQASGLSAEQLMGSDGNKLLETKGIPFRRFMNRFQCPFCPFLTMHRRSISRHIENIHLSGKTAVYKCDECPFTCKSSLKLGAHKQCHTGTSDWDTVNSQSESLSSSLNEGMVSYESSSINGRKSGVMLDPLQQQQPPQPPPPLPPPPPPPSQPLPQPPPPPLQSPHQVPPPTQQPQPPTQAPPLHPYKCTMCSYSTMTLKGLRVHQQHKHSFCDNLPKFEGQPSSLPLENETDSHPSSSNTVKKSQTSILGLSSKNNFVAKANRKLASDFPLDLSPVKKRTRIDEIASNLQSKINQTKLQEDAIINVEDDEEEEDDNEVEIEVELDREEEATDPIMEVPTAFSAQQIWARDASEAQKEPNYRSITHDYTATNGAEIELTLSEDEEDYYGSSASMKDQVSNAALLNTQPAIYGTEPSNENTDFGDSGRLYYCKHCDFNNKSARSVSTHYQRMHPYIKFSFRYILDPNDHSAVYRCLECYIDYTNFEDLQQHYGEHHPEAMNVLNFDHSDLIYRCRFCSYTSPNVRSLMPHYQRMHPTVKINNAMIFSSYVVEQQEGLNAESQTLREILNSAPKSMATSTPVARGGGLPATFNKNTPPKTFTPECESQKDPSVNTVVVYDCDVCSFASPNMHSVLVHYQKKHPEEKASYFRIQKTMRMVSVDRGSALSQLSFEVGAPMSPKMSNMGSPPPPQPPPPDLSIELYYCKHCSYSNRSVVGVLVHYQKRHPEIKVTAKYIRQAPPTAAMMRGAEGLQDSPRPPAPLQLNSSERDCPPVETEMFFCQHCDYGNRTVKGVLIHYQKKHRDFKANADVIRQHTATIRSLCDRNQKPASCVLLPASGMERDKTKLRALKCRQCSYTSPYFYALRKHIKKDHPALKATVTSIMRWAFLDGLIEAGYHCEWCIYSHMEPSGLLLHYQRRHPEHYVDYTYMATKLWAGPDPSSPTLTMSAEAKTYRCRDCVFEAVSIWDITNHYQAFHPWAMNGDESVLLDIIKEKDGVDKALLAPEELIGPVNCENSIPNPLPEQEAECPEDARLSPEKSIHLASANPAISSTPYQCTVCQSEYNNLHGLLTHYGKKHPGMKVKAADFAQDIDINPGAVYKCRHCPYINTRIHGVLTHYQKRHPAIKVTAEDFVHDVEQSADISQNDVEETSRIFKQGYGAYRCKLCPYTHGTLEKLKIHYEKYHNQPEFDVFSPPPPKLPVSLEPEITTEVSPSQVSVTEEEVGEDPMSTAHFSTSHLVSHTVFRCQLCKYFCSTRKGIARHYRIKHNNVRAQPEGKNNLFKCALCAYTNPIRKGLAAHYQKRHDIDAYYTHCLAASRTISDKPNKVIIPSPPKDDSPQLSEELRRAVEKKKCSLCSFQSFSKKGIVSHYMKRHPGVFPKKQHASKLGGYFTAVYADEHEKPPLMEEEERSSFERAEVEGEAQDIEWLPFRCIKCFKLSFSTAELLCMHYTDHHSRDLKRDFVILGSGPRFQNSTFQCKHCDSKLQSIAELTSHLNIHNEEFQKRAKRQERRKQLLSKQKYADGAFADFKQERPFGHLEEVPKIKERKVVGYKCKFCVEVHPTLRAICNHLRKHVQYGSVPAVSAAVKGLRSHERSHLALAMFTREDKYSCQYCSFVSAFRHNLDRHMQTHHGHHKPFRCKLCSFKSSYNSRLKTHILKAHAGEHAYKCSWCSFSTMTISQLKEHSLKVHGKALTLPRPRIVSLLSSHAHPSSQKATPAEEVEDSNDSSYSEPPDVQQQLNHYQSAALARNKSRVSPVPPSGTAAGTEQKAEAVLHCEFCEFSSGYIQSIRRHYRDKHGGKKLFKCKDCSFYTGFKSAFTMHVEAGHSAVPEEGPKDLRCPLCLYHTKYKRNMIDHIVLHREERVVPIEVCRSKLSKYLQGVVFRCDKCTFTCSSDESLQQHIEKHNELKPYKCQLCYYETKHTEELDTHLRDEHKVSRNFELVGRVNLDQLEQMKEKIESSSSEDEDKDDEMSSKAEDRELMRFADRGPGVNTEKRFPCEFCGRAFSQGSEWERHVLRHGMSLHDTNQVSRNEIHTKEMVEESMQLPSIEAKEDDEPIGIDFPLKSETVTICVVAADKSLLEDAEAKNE
# UniProt Q9Z148: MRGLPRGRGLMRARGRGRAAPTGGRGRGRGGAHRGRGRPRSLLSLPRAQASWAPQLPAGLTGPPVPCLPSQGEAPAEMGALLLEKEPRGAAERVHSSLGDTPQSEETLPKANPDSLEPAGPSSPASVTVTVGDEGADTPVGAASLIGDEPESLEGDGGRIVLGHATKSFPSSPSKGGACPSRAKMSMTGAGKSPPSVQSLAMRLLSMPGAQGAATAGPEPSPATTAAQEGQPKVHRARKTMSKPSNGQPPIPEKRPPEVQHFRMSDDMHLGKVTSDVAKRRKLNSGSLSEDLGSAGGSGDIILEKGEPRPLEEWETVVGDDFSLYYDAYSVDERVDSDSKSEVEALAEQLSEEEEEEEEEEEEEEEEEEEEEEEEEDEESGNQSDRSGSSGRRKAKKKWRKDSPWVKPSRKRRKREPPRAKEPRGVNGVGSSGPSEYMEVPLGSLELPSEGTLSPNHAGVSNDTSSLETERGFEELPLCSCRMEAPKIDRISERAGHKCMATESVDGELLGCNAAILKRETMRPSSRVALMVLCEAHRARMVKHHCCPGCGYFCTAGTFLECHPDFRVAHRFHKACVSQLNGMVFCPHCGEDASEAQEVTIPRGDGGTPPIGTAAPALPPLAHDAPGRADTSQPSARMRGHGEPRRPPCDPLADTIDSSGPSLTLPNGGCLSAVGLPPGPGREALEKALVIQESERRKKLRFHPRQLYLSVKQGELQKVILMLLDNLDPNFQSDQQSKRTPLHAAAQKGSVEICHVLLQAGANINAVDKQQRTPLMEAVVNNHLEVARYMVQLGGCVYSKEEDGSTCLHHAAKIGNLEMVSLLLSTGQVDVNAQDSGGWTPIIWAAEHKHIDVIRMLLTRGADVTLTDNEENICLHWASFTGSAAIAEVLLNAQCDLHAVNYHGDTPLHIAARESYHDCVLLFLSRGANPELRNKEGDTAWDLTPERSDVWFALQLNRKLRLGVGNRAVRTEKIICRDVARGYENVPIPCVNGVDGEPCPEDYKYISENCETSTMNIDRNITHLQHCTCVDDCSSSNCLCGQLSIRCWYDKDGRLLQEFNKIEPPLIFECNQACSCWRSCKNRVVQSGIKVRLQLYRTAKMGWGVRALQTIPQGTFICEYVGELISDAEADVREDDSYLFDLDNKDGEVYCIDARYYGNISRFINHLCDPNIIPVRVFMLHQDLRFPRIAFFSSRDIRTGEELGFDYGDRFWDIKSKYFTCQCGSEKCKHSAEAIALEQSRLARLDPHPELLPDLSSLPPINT
# Results are given in words; binding and its absence hold for the method and conditions named. Binding seen in cells or lysates may run through a third protein. These calls come from enrichment with a bait or labelling near it, and not all partners need be listed.
# Key:
# [1] = molecular target: Avi-fused endogenous GLP (G9-like protein, Euchromatic Histone Methyltransferase 1) (mouse (endogenous in mESCs)) (UniProt Q5DW34); assay: affinity purification with mass spectrometry
# [2] = molecular target: Avi-GFP-3XFLAG-tagged endogenous ZFP462 (Zinc finger protein 462) (mouse (endogenous in mESCs)) (UniProt B1AWL2); assay: affinity purification with mass spectrometry
substance,measurement,setting,value
"G9A (Euchromatic Histone Methyltransferase 2), endogenous (from UniProt Q9Z148 1-1263)",binding,[1],binds
same,binding,[2],binds
"ZFP462 (Zinc finger protein 462), endogenous (from UniProt B1AWL2 1-2495)",binding,[1],binds
"WIZ, endogenous (from UniProt O88286 1-1684)",binding,[1],binds
same,binding,[2],binds
